Test results as given in article PMC10024682.
These are yes or no findings as the source states them, for the method shown. Binding seen in cells or lysates may run through a third protein. Some results given as binding are weak or reduced against the parent protein; the word gives no strength.

What was measured:
[1] = target: T1, MAD1-mNG (doxycycline-induced, Tet-On cassette) (human) (UniProt Q9Y6D9); experiment: co-IP; mNeonGreen-Trap agarose on cleared lysates of doxycycline-induced, thymidine-nocodazole arrested HeLa-A12 cells (endogenous MAD1 not knocked down); 75 mM HEPES pH 7.5, 150 mM KCl, 10% glycerol, 1% CHAPS in lysis; 4 °C; immunoblot
T1 sequence: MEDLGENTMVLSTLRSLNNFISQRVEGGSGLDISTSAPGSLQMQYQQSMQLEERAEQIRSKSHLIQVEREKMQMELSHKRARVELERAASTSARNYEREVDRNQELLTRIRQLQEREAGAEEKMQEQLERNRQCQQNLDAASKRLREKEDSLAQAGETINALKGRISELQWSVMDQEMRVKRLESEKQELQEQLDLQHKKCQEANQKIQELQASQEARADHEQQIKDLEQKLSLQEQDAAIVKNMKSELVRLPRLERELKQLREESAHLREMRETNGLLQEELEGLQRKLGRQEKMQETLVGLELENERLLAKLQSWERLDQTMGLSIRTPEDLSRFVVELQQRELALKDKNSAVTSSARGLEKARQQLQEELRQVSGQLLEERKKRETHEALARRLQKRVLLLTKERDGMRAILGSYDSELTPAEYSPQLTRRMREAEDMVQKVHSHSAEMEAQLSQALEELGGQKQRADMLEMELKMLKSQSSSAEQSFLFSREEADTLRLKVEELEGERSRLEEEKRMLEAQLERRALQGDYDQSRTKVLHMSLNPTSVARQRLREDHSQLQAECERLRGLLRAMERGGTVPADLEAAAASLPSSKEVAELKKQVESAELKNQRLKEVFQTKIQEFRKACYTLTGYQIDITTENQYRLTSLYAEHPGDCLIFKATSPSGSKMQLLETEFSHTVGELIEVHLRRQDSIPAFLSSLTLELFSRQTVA

[2] = target: T2, MAD1^ΔL-mNG (doxycycline-induced, Tet-On cassette) (human) (UniProt Q9Y6D9); experiment: as above
T2 sequence: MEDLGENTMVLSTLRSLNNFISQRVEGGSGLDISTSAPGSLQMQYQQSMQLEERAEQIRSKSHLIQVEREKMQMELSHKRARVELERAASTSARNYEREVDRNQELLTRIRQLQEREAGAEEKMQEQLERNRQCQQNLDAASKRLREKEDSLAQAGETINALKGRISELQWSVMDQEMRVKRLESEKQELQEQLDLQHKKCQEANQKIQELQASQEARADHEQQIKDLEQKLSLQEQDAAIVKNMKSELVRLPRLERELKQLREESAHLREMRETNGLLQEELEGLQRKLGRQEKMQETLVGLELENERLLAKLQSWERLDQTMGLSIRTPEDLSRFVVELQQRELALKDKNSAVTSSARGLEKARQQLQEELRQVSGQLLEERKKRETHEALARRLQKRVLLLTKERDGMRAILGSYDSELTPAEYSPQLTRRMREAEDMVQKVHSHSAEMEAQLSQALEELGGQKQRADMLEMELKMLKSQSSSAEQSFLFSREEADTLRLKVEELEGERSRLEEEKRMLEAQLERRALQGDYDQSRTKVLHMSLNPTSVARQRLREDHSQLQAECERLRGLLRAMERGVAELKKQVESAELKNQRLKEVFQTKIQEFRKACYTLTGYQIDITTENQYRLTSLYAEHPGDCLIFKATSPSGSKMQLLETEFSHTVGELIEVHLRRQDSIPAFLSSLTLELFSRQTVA

B1: endogenous MAD1 (protein, UniProt Q9Y6D9-1 1-718)
chain: MEDLGENTMVLSTLRSLNNFISQRVEGGSGLDISTSAPGSLQMQYQQSMQLEERAEQIRSKSHLIQVEREKMQMELSHKRARVELERAASTSARNYEREVDRNQELLTRIRQLQEREAGAEEKMQEQLERNRQCQQNLDAASKRLREKEDSLAQAGETINALKGRISELQWSVMDQEMRVKRLESEKQELQEQLDLQHKKCQEANQKIQELQASQEARADHEQQIKDLEQKLSLQEQDAAIVKNMKSELVRLPRLERELKQLREESAHLREMRETNGLLQEELEGLQRKLGRQEKMQETLVGLELENERLLAKLQSWERLDQTMGLSIRTPEDLSRFVVELQQRELALKDKNSAVTSSARGLEKARQQLQEELRQVSGQLLEERKKRETHEALARRLQKRVLLLTKERDGMRAILGSYDSELTPAEYSPQLTRRMREAEDMVQKVHSHSAEMEAQLSQALEELGGQKQRADMLEMELKMLKSQSSSAEQSFLFSREEADTLRLKVEELEGERSRLEEEKRMLEAQLERRALQGDYDQSRTKVLHMSLNPTSVARQRLREDHSQLQAECERLRGLLRAMERGGTVPADLEAAAASLPSSKEVAELKKQVESAELKNQRLKEVFQTKIQEFRKACYTLTGYQIDITTENQYRLTSLYAEHPGDCLIFKATSPSGSKMQLLETEFSHTVGELIEVHLRRQDSIPAFLSSLTLELFSRQTVA
In the case of B1, the binding [1] is reported as “binds” and the binding [2] is reported as “binds”.
